Measurements from “University of Dundee, Small-Polar-MMV Screening Library” (2021), ChEMBL document CHEMBL3988442.

Amino acid sequences for entries named in this document (tags omitted). Residues count along the entry.
UniProt Q4DA54, 1-478: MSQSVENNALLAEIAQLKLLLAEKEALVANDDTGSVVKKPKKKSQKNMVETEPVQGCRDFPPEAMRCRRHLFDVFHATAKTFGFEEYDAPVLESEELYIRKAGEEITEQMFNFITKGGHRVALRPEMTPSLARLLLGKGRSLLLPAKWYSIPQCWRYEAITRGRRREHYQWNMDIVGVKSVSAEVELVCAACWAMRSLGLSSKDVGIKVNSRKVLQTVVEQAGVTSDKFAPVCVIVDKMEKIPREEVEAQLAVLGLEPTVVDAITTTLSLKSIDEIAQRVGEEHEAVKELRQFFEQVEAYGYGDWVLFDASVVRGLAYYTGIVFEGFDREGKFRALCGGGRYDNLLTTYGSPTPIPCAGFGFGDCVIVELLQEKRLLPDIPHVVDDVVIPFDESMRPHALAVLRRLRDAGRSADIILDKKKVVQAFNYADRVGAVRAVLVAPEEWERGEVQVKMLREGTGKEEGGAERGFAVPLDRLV
UniProt P9WNZ1, whole entry: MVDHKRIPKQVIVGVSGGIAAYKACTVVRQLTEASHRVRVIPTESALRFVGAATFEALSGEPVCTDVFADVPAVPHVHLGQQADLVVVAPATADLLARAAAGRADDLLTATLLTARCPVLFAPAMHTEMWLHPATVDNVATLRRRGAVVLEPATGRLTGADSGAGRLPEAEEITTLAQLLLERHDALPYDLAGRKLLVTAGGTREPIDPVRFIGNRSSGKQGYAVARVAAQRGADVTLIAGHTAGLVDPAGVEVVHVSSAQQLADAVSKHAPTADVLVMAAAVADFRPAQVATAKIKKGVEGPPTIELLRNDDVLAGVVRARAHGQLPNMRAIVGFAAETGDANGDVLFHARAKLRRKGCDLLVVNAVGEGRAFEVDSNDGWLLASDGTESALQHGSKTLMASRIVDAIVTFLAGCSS

Toxoplasma: 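Assay of Toxoplasma gondii numbers, read through their beta-galactosidase reporter with a colour substrate. Tested at 10 µM. The record gives no direction; the compounds picked for IC50 retests had high values, so higher reads as fewer parasites. About 67,000 compounds were tested under these conditions; 0.38% (about 260) showed 50% or more at least once.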
TcHisRS: 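Enzyme assay of histidyl-tRNA synthetase; the read-out is not stated. Target: Histidine-tRNA ligase, Trypanosoma cruzi CL Brener (UniProt Q4DA54). Tested at 30 µM. Direction is inferred from retests: higher values go with stronger inhibition. Of about 69,000 compounds tested this way, about 31 (0.045%) reached 50% or more in at least one test.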
CoaBC: 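Enzyme assay of CoaBC with a phosphate dye (Biomol Green) read at 650 nm. Target: Coenzyme A biosynthesis protein CoaBC, Mycobacterium tuberculosis (UniProt P9WNZ1). Tested at 30 µM. Higher reads as stronger inhibition, judged from the few compounds that gave an IC50. Most strong results did not repeat in a second test. Size under these conditions: about 67,000 compounds, about 40 of them at 50% or above in at least one test.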
Leishmania in macrophages: 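Cell assay of Leishmania donovani living inside macrophages; the read-out is not stated. Concentration: 30 µM. Direction is inferred from retests: higher values go with stronger inhibition. Size under these conditions: about 69,000 compounds, about 1,000 of them at 50% or above in at least one test.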

The filed quantity is “Percent Effect” (%). The record does not define 0% and 100%; most values in the screen are far below 50% and negative numbers occur (in some assays of this library far below -100). Compounds were drawn at random from those tested, without regard to their results. A dash means the value is not listed here; it may have been measured.

Compound	Toxoplasma	TcHisRS	CoaBC	Leishmania in macrophages
CCSc1cncc(N2CCC(NC(=O)C3CCCCC3)CC2)n1	-2.045%	8.333%	8.171%	16.2%
CC(C)c1cc(C(F)(F)F)n2nc(CCC(=O)O)nc2n1	-9.196%	5.376%	8.77%	-6.868%
COCCn1ccnc1C1CCN(c2cccc(C(=O)O)n2)CC1	6.257%	1.911%	-	16.24%
Cc1cc(OC(F)F)c(C(=O)N2CCC(CN(C)C)CC2)s1	2.915%	3.093%	-0.4717%	6.097%
O=C(CSc1ccc(F)c(F)c1)NS(=O)(=O)c1ccc2c(c1)OCCO2	-14.36%	-6.107%	0.5181%	29.99%
CCNc1ncc(C(=O)N(C)Cc2nc3cc(Cl)ccc3[nH]2)cn1	-0.6805%	-1.149%	1.6%	18.14%
COCCN1CCOCC2(CCCN(Cc3ccc(C)o3)C2)C1 (stereo not drawn)	-	3.784%	-1.142%	-
Cc1nccn1C1CCCN(C(=O)CCCNc2ncccn2)C1 (stereo not drawn)	18.32%	4.871%	7.329%	20.53%
CC(=O)N1CCN(Cc2ccc(C)o2)CC2(CC(=O)N(C)C2)C1 (stereo not drawn)	-	10.1%	3.059%	-
O=C(c1cccnc1)N(CCO)Cc1cc(Br)ccc1F	-15.62%	5.155%	9.198%	-15.17%
[H][C@@]12C[C@H](C(=O)N3CCCCO3)CN(Cc3ccncc3)[C@]1([H])CCO2	-1.709%	-	-	9.159%
CNC(=O)CN1C(=O)CN(C(=O)COC)CCC(OC)c2ccccc21 (stereo not drawn)	-20.99%	-4.494%	-3.39%	-8.205%
CC[C@H]1COCCN1C(=O)c1cnc(C(C)C)nc1C	13.07%	3.529%	-2.211%	-27.58%
Cc1cc(S(=O)(=O)N(CCO)C2CC2)ccc1F	5.049%	6.077%	-0.1274%	-3.533%
CN(CCOc1cccc(Cl)c1)Cc1nnc(C(C)(C)C)o1	2.401%	4.202%	2.016%	-1.067%
CCSc1cc(C(=O)NCCc2nnc(-c3ccco3)[nH]2)ccn1	-5.581%	0%	15.7%	-0.0887%
COCc1noc(CCNC(=O)c2cc(C)c(C)[nH]c2=O)n1	3.806%	4.469%	4.113%	27.25%
O=c1[nH]c(=O)n(CC(O)c2ccc(F)cc2F)cc1Cl (stereo not drawn)	-21.73%	5.263%	-2.789%	7.983%
Cc1csc(N2CCN(C(=O)NCCNc3ncccn3)CC2)n1	5.855%	2.035%	4.54%	17.13%
CC(C)C(=O)NC1COC2(CCN(C(=O)c3cccnc3)CC2)C1 (stereo not drawn)	-4.354%	10.68%	0.5089%	6.986%
Cc1ncc(CC(=O)N2C[C@@H]3CC[C@H](C2)N(CC2CCC2)C3)c(=O)[nH]1	-	-1.163%	12.45%	-
Cc1occc1CNC(=O)C1(C)CCCN(C(=O)c2ccccc2)C1 (stereo not drawn)	-0.7519%	4.372%	11.49%	52.94%
CN1CCOC(CNCc2ccccc2OCc2ccccn2)C1 (stereo not drawn)	11.48%	3.79%	-0.3736%	34.96%
CCOc1ncccc1CNc1cc(COC)ncn1	0.5708%	2.632%	-	-4.105%
CCc1noc(C(C)N2CCN(Cc3nnc(C4CC4)o3)CC2)n1 (stereo not drawn)	-3.291%	-3.396%	-2.477%	1.858%
COc1cccc(S(=O)(=O)N2CCCc3c(OC)nn(C)c3C2)c1	10.57%	7.609%	0.9346%	31.21%
O=C(Cc1n[nH]c(-c2cncc(Br)c2)n1)NCc1ccncc1	10.45%	3.004%	1.555%	21.34%
Cc1noc(C)c1CN1CCOC2(CCCN(c3nncs3)C2)C1 (stereo not drawn)	-	6.863%	6.189%	-
c1csc(CN2CCC3(CC2)CCN(CC2CCOCC2)C3)n1	-	3.226%	3.171%	-
CC(=O)N1C[C@@H](c2ccsc2)[C@@H]2CN(Cc3ccccc3Cl)CC[C@@H]21	-	13.56%	1.325%	-
CN(CCCc1ccccc1)C(=O)c1ccccc1NCC(=O)O	-6.43%	7.182%	6.796%	7.72%
O=C(O)C(F)(F)F.[H][C@@]12CCN(Cc3ccccc3F)C[C@]1(C(=O)N1CCOCC1)CCO2	-10.52%	-	-	-1.95%
O=C1NC2(CCN(C(=O)N3CCOCC3)CC2)CC1c1cccnc1 (stereo not drawn)	-	4.02%	3.393%	-
O=C(NCc1ccc(N2CCSCC2)cc1)NCc1cc[nH]n1	-8.18%	9.524%	0.1229%	-12.78%
O=C(O)CSc1nnc(-c2ccn[nH]2)n1-c1cccc(C(F)(F)F)c1	-28.06%	9.091%	1.79%	13.72%

Some entries from above, unchanged:

Compound,Toxoplasma,TcHisRS,CoaBC,Leishmania in macrophages
CNC(=O)CN1C(=O)CN(C(=O)COC)CCC(OC)c2ccccc21 (stereo not drawn),-20.99%,-4.494%,-3.39%,-8.205%
COCc1noc(CCNC(=O)c2cc(C)c(C)[nH]c2=O)n1,3.806%,4.469%,4.113%,27.25%
CCSc1cc(C(=O)NCCc2nnc(-c3ccco3)[nH]2)ccn1,-5.581%,0%,15.7%,-0.0887%
O=C(NCc1ccc(N2CCSCC2)cc1)NCc1cc[nH]n1,-8.18%,9.524%,0.1229%,-12.78%